# Where “and” joins values, the source holds several entries; their conditions need not be identical. Identical values can stand only once. The campaign covered roughly 580,000 compounds. About 6,100 (1.1%) were called active. This list was built around the results that the source calls inconclusive (neither active nor inactive); the mix of calls is not that of the screen. Calls come from the whole dose curve; as a rule, active = well fitted inhibition curve with a large enough effect; inconclusive = small, poorly fitted or top-dose-only effect, or another doubt; inactive = no such curve, though single readings can be large or run the other way. A potency beside an inconclusive call is a rough fit, not a confirmed value.
# Amino acid sequences for entries named in this document (tags omitted). A change or cut given only in a name is not applied to a line headed by its entry.
# UniProt P18054: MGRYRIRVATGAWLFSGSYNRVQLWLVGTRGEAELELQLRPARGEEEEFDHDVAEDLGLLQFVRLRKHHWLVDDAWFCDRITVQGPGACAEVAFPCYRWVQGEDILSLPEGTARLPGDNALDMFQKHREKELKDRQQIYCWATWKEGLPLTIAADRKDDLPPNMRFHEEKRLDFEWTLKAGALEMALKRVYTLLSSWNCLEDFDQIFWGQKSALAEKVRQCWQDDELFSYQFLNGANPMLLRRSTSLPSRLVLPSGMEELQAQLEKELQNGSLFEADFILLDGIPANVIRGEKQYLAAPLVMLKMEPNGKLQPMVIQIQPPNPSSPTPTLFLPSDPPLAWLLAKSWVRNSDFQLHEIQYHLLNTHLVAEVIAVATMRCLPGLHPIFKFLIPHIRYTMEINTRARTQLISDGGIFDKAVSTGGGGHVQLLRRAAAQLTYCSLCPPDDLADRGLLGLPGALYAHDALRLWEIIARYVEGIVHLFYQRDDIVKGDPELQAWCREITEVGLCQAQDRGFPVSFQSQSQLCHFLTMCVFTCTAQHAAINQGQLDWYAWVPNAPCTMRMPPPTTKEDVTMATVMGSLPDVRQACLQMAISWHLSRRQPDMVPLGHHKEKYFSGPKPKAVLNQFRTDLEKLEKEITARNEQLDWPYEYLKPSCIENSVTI
# Target: Polyunsaturated fatty acid lipoxygenase ALOX12 (Homo sapiens) (UniProt P18054)
# Experiment: Primary qHTS assay for inhibitors of human arachidonate 12S-lipoxygenase (ALOX12): Round 2
# Conditions: purified 12hLO, xylenol orange hydroperoxide absorbance; activity change, negative = inhibition: at 108 µM (top of the series) unless noted
# Method in brief: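 Hydroperoxide product was detected by ferrous iron/xylenol orange as the 573 to 405 nm absorbance ratio. Arachidonic acid at 40 uM (final) was turned over for 30 min at room temperature by 150 nM human 12hLO, pH 7.0 Hepes buffer, after 15 min compound preincubation.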
# % is set by controls: 0 for no effect and ±100 for the full control effect; potency is the fitted concentration of half-maximal effect.
SMILES,Potency,"activity change, negative = inhibition"
Cc1ccccc1Nc1nc(NCc2ccco2)c2ccccc2n1,"inconclusive: 79.4 µM [inhibitor, partial curve, poor fit] and inconclusive: 50.1 µM [inhibitor, partial curve, poor fit]",
Cc1ccc2oc(=O)n(CCNC(=O)Nc3ccc4c(c3)OCCO4)c2c1,"inconclusive: 79.4 µM [inhibitor, single point]",
N=c1n(CC(=O)c2cccc([N+](=O)[O-])c2)c2ccccc2n1Cc1ccccc1,"inconclusive: 31.6 µM [inhibitor, single point]",
CC(=Cc1ccccc1)C=C1SC(=S)N(CC(=O)O)C1=O,"inconclusive: 2.17 µM [inhibitor, partial curve, poor fit]",
Cn1c(=O)n(CC(=O)O)c(=O)c2c1nc1n2CCCN1Cc1ccccc1,"inconclusive: 35.5 µM [inhibitor, partial curve, poor fit]",
O=C(O)C(O)C(O)(Cc1ccc(O)cc1)C(=O)O (centres undefined),"inconclusive: 50.1 µM [inhibitor, partial curve, poor fit]",
CC1=C[C@@H](CNC(=O)CC2(CC(=O)O)CCCC2)[C@H](C(C)C)C[C@H]1Cc1nc2ccccc2n1C,"inconclusive: 14.1 µM [inhibitor, full curve, poor fit]",
c1ccc2oc(-c3ccc4nc[nH]c4c3)nc2c1,,inactive: 0%
CN1CCN(c2ccc(NC(=O)c3cccc(S(=O)(=O)NCc4ccco4)c3)cc2)CC1,,inactive: 18.2%
NC(=O)c1cccc(O)c1,"inconclusive: 1.26 µM [inhibitor, full curve, poor fit]",
Cc1ccc(NC2Nc3cc(C)nn3S2)c(C)c1 (centres undefined),active: 39.8 µM,
Cc1ccc(C)c(N2CCN(C(=O)CCS(=O)(=O)c3cc(Br)cc4c3N(C(=O)C3CC3)CC4)CC2)c1,"inconclusive: 89.1 µM [inhibitor, partial curve, poor fit]",
CN1CC(=O)N(C2CCCNCC2)Cc2c(NC3CCCCC3)ncnc21 (centres undefined),"inconclusive: 2.54 µM [inhibitor, partial curve]",
O=C1Cc2cc(-c3csc(Nc4ccccc4)n3)ccc2N1,"inconclusive: 44.7 µM [inhibitor, partial curve, poor fit]",
CCOC(=O)c1cc2cc(OCc3ccccc3)ccc2nc1C,"inconclusive: 39.8 µM [inhibitor, partial curve, poor fit]",
Fc1cc(F)cc(NC(=S)Nc2ccccc2N2CCOCC2)c1,,inactive: -21.2%
COc1ccc(N=NC2=C(O)CC(C)(C)CC2=O)c(OC)c1,"inconclusive: 44.7 µM [inhibitor, partial curve, poor fit]",
O=C(NCCN1CCOCC1)c1ccc2c(c1)n(Cc1cccc(F)c1)c(=O)c1ccnn12,,inactive: 18.5%
CCCCCCN1CCN(C2CN(Cc3cn(Cc4ccc(C(F)(F)F)cc4)nn3)S(=O)(=O)C2)CC1 (centres undefined),"inconclusive: 44.7 µM [inhibitor, partial curve, poor fit]",
CC1=C(C(=O)Nc2ccccc2)C(c2cccs2)n2nnnc2N1 (centres undefined),,inactive: -22.5%
Oc1cc2c(cc1C(c1ccc(Cl)c(Cl)c1)N1CCCC1)OCO2 (centres undefined),active: 4.47 µM,
O=C(CNCc1ccco1)Nc1ccc(Oc2ccccc2)cc1,"inconclusive: 0.891 µM [inhibitor, full curve]",

SMILES,Potency,"activity change, negative = inhibition"
CC(CN(C)Cc1ccccc1)OC(=O)c1cccs1 (centres undefined),"inconclusive: 56.2 µM [inhibitor, partial curve, poor fit]",
OC(CNCC1CCCO1)Cn1c2ccc(Cl)cc2c2cc(Cl)ccc21 (centres undefined),"inconclusive: 70.8 µM [inhibitor, single point]",
NC(=O)CN1CCCN(S(=O)(=O)c2ccc(Br)cc2)CC1,"inconclusive: 5.62 µM [inhibitor, full curve, poor fit]",
CCn1c(SCC(=O)Nc2oc(C)c3c(C)n[nH]c(=O)c23)nnc1C1CC1,"inconclusive: 70.8 µM [inhibitor, partial curve, poor fit]",
CCCCCCn1c(SCc2ccc(F)cc2)nc2c1c(=O)[nH]c(=O)n2C,,inactive: -2.08%
CCOc1ccc2nc(NC(=O)Cn3cnc4c3c(=O)n(C)c(=O)n4C)sc2c1,"inconclusive: 14.1 µM [inhibitor, partial curve, poor fit]",
CCn1c(SCc2ccc(F)cc2Cl)nnc1-c1cnccn1,"inconclusive: 44.7 µM [inhibitor, single point]",
Cc1noc(-c2ccc3c(c2)OCO3)c1C(=O)NCCCCc1ccccc1,,inactive: 8.33%
S=C1CSc2ccccc2N1,"inconclusive: 100 µM [inhibitor, single point]",
CCc1noc(-c2cn(C3CCN(C(=O)c4cccc(Br)c4)C3)nn2)n1 (centres undefined),,inactive: 0.446%
Cc1ccccc1-n1cnc2c(sc3nc(N4CCOCC4)c4c(c32)CCCC4)c1=O,"inconclusive: 79.4 µM [inhibitor, partial curve, poor fit]",
Cc1nnc(SCC(=O)NC(C)c2ccccc2)[nH]c1=O (centres undefined),"inconclusive: 70.8 µM [inhibitor, partial curve, poor fit]",
Cc1ccc(C2/C(=C(\O)c3ccc4c(c3)OCCO4)C(=O)C(=O)N2Cc2cccnc2)cc1 (centres undefined),"inconclusive: 31.6 µM [inhibitor, single point]",
O=C(O)[C@@H]1CCCN1C(=O)c1ccccc1N1C(=O)[C@@H]2Cc3c([nH]c4ccccc34)C(c3cccc(Cl)c3)N2C1=O (some centres undefined),"inconclusive: 50.1 µM [inhibitor, partial curve, poor fit]",
c1ccc(CN2CCN(c3nc(NCc4ccco4)c4ccccc4n3)CC2)cc1,active: 39.8 µM,
C1=C[C@H]2CCCN3CC[C@@H]([C@@H]2[C@]32CO2)[C@H]1CCOCc1ccccc1,"inconclusive: 31.6 µM [inhibitor, single point]",
CCOc1ccccc1NC(=O)c1cc2cc3cc(C)ccc3nc2s1,,inactive: -28.7%
O=C(O)/C(=C\c1ccc(Br)cc1)c1ccc(S(=O)(=O)N2CCCCC2)s1,"inconclusive: 50.1 µM [inhibitor, partial curve, poor fit]",
CCc1cccc2c(C(=O)CN3CCN(C(C)C(=O)NC4CC4)CC3)c[nH]c12 (centres undefined),,inactive: -6.04%
O=C1CSCC(=O)N1Cc1ccc(Cl)cc1Cl,"inconclusive: 70.8 µM [inhibitor, single point]",
COc1cc2c(cc1OC)C1(Nc3c-2c(Cc2ccccc2)nn3-c2ccccc2)C(=O)Nc2ccccc21 (centres undefined),"inconclusive: 89.1 µM [inhibitor, single point]",
Cc1cc(Cl)ccc1NC(=S)NCC(O)c1ccccc1 (centres undefined),"inconclusive: 100 µM [inhibitor, single point]",

SMILES,Potency,"activity change, negative = inhibition"
CCc1ccc(-c2cc(C)no2)cc1S(=O)(=O)Nc1cc(F)ccc1F,,inactive: -0.544%
CCc1ccccc1NC(=O)c1ccc(Cn2nc(N3CCN(c4ccccc4)CC3)ccc2=O)o1,"inconclusive: 112 µM [inhibitor, partial curve, poor fit]",
Fc1ccccc1NC(=S)Nc1ccc(Br)cc1,,inactive: -29.1%
CCC(C)NC(=O)C1COC2(CCC(C)CC2)N1C(=O)c1cccc(C)c1 (centres undefined),,inactive: 86.2%
Cc1cccc(C)c1NC(=O)CN1C(=O)NC2(CCCCC2)C1=O,"inconclusive: 2.82 µM [inhibitor, full curve, poor fit]",
Cc1cc(C(=O)OCC(=O)Nc2cccc(F)c2)c2ccccc2n1,"inconclusive: 5.62 µM [inhibitor, full curve, poor fit]",
Cn1nc(C(=O)OCCCc2ccccc2)c2ccccc2c1=O,,inactive: 0.934%
N#CCC1(O)C(=O)Nc2ccccc21 (centres undefined),,inactive: 7.12%
O=[N+]([O-])C1=CC=C2C(=NC3(CCCCC3)N2O)C1=NCCO,"inconclusive: 44.7 µM [inhibitor, partial curve, poor fit]",
CC(=O)c1ccc(NC(=O)COc2ccc3c(c2)OCO3)cc1,"inconclusive: 141 µM [inhibitor, partial curve, poor fit]",
COc1ccc(OCC(=O)Nc2cccc(C(=O)OCc3cc(=O)n4nc(C)sc4n3)c2)cc1,"inconclusive: 112 µM [inhibitor, partial curve, poor fit]",
O=C(Nc1nccs1)c1ccc[n+]([O-])c1,,inactive: -54.2%
CN(C)C(=O)c1ccc(Nc2nc(-c3cccs3)nc3ccccc23)cc1,"inconclusive: 50.1 µM [inhibitor, partial curve, poor fit]",
COCc1cc(C)nc2sc(C(=O)Nc3ccc(C(C)=O)cc3)c(N)c12,"inconclusive: 112 µM [inhibitor, partial curve, poor fit]",
N#Cc1ccccc1COC(=O)c1ccc2c(c1)OCCO2,"inconclusive: 2.82 µM [inhibitor, full curve, poor fit]",
Cc1ccc(S(=O)(=O)N2CCC([C@@H](C#N)c3ccccc3)CC2)cc1,"inconclusive: 112 µM [inhibitor, single point]",
COc1ccc(NS(=O)(=O)c2cc(N=Nc3c(O)[nH]c(=O)[nH]c3=O)ccc2OC)cc1Br,"inconclusive: 44.7 µM [inhibitor, partial curve, poor fit]",
Cc1ccc(NC(=O)c2ccc3ccccc3n2)c(C)c1,"inconclusive: 0.316 µM [inhibitor, full curve, poor fit]",
Cc1[nH]c2ccccc2c1/C=C(\C#N)C(=O)NC1CC1,"inconclusive: 50.1 µM [inhibitor, partial curve, poor fit]",
CC1(C)OC[C@@H](COC(=O)CCc2ccc(OC[C@@H](O)CNCCNC(=O)N3CCOCC3)cc2)O1,"inconclusive: 5.73 µM [inhibitor, partial curve]",

# Source: PubChem BioAssay AID1671190 (National Center for Advancing Translational Sciences (NCATS), 2021)
